This is one part of the list. Residues, ends and D or L forms follow the SMILES beside them. *: point of attachment. Cbz = O=C(OCc1ccccc1)*
Assays:
Test in all cases: log2 fold change, soluble protein after heating vs DMSO (PISA); higher = thermal stabilisation; K562 cells, 10 uM, 30 min; active = over 0.2 and 3.5 SD of the protein, either way, in both replicates (recomputed)
[1] = compound: C/C(=N\NC(=O)C1=CC(=CC=C1)S(=O)(=O)N2CCOCC2)/C3=C(C=CC(=C3)Cl)O
Summary of the method: (§1)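 Values are thermal stability changes relative to control samples and are taken from duplicates. They are stated as log2 fold changes. Before quantification by TMTpro 16plex LC-MS/MS with equalised channel sums, K562 cells at 2×10^6 cells/mL were treated with 10 μM compound for 30 min, heated in aliquots for 3 min across 48°C-58°C, pooled, extracted in PBS with 0.5% NP-40 at 4°C, and centrifuged at 21,000xg for 90 min to give the soluble supernatant.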

Sequences of proteins named here, by UniProt entry; tags and fusion partners are left off. A change or cut given only in a name is not applied to a line headed by its entry.
UniProt Q9Y2R4: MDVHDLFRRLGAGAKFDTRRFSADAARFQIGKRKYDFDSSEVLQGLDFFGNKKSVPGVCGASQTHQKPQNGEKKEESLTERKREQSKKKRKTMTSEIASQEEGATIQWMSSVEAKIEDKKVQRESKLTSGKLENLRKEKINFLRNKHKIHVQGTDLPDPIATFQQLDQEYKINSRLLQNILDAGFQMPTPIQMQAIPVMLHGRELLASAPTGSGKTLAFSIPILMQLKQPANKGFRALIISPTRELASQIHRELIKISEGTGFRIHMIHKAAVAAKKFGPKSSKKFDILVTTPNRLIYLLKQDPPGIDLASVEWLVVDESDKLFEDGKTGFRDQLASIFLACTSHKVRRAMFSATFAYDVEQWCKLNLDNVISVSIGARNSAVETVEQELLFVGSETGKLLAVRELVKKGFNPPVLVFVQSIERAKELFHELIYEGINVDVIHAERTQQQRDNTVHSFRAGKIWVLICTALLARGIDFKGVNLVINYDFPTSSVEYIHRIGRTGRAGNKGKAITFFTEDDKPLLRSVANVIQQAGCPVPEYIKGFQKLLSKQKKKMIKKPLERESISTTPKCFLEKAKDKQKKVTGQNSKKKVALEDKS
UniProt P0CG12: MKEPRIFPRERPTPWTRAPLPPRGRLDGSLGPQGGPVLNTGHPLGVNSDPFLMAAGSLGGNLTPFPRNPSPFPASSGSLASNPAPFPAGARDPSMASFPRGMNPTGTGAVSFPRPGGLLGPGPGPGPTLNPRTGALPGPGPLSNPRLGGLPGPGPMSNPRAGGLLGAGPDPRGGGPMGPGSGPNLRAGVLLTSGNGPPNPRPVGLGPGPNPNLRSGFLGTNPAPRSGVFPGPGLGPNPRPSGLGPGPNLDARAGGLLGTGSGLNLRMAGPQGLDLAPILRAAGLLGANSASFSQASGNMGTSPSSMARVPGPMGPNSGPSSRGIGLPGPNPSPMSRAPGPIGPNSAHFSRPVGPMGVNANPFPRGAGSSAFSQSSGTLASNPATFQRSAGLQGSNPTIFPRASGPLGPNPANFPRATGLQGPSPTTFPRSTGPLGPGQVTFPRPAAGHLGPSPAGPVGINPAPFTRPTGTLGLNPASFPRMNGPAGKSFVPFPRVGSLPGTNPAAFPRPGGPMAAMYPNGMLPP
UniProt Q8TEH3: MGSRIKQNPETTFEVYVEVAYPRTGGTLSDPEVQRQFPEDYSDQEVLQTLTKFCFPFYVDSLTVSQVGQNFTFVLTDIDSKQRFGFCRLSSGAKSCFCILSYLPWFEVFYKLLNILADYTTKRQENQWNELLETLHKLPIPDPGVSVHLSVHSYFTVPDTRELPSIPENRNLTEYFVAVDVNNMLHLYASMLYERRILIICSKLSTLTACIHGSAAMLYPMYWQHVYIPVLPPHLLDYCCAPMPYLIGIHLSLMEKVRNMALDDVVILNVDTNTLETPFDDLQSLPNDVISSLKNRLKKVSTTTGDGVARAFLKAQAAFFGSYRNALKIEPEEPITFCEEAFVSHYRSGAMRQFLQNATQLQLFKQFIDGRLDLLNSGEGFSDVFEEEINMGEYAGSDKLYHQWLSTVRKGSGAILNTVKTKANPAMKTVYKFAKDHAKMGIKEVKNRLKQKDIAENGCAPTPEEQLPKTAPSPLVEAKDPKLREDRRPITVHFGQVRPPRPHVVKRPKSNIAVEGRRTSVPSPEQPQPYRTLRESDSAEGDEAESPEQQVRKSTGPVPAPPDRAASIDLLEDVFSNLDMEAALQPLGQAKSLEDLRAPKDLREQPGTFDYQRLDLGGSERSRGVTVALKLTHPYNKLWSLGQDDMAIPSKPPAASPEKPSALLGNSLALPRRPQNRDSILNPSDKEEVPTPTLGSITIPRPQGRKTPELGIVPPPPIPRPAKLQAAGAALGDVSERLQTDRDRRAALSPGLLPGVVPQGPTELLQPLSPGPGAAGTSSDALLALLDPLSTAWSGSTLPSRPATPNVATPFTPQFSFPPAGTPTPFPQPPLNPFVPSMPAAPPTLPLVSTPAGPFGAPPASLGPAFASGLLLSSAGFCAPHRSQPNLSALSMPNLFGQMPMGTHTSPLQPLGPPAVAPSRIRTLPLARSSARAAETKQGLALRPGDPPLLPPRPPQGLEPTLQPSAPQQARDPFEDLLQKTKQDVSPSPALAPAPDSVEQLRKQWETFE
UniProt O00273: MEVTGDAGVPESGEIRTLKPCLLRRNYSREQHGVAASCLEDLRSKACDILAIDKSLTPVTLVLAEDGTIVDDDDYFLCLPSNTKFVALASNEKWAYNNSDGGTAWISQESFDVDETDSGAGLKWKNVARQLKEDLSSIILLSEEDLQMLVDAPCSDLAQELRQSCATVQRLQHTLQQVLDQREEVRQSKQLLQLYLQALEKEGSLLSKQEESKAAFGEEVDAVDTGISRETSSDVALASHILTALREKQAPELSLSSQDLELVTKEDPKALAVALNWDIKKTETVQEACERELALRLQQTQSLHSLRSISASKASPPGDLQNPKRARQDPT
UniProt Q9H5Z1: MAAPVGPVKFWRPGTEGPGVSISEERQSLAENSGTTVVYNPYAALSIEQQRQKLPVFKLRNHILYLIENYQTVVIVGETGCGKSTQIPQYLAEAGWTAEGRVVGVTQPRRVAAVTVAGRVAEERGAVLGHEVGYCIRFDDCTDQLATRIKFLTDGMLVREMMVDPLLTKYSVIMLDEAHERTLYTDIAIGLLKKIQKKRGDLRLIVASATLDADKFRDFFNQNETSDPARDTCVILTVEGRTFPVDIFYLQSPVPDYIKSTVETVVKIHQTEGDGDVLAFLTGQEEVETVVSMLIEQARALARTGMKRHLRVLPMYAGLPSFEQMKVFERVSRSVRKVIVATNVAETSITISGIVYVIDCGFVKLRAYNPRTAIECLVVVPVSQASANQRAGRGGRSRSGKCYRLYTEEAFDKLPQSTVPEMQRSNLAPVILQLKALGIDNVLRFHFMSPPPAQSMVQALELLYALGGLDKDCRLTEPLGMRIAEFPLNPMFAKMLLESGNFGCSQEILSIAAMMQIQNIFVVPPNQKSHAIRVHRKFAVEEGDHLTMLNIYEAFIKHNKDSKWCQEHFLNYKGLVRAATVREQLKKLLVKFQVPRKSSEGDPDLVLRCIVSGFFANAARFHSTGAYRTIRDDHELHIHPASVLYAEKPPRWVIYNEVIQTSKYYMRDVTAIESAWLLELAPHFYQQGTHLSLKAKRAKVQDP
UniProt P80370: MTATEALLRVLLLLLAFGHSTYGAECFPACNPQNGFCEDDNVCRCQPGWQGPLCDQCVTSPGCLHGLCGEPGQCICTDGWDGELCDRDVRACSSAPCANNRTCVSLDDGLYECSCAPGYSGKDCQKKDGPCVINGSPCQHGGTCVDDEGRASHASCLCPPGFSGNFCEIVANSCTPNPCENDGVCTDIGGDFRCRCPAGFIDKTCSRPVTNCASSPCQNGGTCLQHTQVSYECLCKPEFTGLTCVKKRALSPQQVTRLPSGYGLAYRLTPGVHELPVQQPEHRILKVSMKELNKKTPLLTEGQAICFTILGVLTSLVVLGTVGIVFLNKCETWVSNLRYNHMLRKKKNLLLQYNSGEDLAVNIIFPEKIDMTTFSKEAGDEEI
UniProt Q9GZR7: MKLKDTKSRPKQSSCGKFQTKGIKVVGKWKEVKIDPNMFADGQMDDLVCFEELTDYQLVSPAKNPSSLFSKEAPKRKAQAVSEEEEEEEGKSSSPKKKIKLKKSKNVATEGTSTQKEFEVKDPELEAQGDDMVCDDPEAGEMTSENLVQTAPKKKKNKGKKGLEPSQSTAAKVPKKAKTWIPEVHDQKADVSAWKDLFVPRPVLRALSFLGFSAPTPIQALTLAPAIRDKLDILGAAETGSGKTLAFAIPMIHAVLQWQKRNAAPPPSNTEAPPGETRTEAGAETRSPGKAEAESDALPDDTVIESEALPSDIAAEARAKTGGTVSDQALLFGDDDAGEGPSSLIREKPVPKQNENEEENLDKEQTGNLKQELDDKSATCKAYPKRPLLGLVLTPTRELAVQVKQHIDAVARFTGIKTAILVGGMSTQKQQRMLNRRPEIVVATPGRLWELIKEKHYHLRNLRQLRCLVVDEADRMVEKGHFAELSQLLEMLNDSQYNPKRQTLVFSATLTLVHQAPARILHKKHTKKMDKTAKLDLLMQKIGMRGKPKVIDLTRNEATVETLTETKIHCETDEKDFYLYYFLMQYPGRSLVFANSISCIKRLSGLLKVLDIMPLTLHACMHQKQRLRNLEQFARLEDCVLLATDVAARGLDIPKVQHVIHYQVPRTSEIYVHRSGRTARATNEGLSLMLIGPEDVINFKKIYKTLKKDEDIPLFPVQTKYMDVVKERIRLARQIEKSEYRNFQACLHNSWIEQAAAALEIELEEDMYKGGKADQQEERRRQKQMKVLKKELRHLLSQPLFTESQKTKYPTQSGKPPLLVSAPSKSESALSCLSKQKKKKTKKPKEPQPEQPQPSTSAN
UniProt Q96QB1: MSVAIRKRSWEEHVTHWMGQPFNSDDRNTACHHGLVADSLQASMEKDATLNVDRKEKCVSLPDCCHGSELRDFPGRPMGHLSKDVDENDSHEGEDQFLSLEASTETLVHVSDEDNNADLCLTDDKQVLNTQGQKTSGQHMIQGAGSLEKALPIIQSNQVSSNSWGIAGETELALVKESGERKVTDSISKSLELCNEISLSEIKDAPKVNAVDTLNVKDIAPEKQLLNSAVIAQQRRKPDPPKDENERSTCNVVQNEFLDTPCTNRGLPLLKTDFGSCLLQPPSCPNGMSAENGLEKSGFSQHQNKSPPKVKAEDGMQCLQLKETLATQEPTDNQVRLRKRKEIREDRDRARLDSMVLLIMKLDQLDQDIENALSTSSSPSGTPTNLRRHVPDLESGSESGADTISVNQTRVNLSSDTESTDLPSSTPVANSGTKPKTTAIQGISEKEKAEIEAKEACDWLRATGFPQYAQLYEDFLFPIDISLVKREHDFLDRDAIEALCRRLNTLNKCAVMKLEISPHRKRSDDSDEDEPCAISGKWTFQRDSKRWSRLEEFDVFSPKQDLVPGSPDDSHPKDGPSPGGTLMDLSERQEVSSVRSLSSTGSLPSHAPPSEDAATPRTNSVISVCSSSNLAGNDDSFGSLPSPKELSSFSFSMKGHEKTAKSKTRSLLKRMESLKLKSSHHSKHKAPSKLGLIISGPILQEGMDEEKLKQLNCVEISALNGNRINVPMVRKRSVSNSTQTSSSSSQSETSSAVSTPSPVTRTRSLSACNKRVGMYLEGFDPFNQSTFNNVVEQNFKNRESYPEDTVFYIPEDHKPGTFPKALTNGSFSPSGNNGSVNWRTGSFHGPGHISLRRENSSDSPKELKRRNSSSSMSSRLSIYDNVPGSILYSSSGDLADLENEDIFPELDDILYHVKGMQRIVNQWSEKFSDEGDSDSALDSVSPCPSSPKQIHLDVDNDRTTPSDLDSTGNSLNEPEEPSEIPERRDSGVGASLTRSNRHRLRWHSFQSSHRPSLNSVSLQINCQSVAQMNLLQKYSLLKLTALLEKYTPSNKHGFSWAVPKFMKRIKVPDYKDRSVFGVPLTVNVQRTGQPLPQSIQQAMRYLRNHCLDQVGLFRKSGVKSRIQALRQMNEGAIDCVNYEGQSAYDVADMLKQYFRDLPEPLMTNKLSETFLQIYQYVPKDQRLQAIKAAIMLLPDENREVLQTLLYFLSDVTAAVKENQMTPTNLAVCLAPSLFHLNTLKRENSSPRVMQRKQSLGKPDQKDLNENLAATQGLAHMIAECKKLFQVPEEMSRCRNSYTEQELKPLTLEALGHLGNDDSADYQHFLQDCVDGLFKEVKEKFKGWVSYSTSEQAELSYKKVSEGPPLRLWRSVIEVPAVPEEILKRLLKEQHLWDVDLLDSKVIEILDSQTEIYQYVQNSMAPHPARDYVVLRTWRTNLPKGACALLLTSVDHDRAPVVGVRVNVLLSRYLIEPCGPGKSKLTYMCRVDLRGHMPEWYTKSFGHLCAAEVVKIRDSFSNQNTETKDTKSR
UniProt Q9H0S4: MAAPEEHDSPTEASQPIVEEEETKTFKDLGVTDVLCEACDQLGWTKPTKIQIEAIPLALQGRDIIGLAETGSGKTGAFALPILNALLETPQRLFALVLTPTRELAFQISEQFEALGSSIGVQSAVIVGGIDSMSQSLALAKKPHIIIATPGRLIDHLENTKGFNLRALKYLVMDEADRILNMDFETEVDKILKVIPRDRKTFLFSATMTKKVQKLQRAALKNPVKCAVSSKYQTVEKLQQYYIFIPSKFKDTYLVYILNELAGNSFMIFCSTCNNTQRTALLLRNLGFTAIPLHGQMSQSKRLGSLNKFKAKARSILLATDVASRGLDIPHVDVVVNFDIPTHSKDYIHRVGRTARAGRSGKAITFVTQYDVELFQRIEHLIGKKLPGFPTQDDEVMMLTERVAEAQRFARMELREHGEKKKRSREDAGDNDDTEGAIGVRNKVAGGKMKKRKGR
UniProt O95057: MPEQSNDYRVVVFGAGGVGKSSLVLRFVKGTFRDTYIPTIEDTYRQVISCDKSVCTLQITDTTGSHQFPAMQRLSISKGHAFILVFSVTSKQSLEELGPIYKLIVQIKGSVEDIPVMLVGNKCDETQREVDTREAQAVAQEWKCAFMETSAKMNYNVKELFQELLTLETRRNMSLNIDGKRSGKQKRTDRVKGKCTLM

[2] = compound: C1=CC(=C(C=C1Cl)C2=NC3=NC=CN=C3C(=N2)NC4=CC=NC=C4)F
Summary of the method: as §1

[3] = compound: C1=CC2=C(C=CC(=C2)/C=C\3/C(=O)NC(=NCC4=CC=CS4)S3)N=C1
Summary of the method: as §1

[4] = compound: C1=CC2=NC=CN=C2C=C1/C=C/3\C(=O)NC(=O)S3
Summary of the method: as §1

[5] = compound: C1=CC=C2C(=C1)C3=NNC4=CC=CC(=C43)C2=O
Summary of the method: as §1

[6] = compound: C1COCCN1CCN2C3=CC=CC=C3N=C2NC(=O)C4=CC(=CC=C4)[N+](=O)[O-] [IRAK-1-4 Inhibitor I]
Summary of the method: as §1

[7] = compound: C=CC(=O)N1CCC[C@@H](n2nc(-c3ccc(Oc4ccccc4)cc3)c3c(N)ncnc32)C1 [ibrutinib]
Summary of the method: as §1

[8] = compound: CC(=O)c1cnc2ccc(-c3cc(Cl)c(O)c(Cl)c3)nc2c1N[C@H]1CC[C@H](CN(C)C)CC1
Summary of the method: as §1

[9] = compound: CC(C)(O)CC(=O)NCCn1ccc2ncnc(Nc3ccc(Oc4cccc(C(F)(F)F)c4)c(Cl)c3)c21
Summary of the method: as §1

[10] = compound: CC(C)N(C[C@H]1O[C@@H](n2cnc3c(N)ncnc32)[C@H](O)[C@@H]1O)[C@H]1C[C@@H](CCc2nc3cc(C(C)(C)C)ccc3[nH]2)C1 [pinometostat]
Summary of the method: as §1

[11] = compound: CC1=C(C(CC(=O)N1)C2=CC=C(C=C2)C(F)(F)F)C(=O)NC3=C(C=C4C(=C3)C=NN4)F
Summary of the method: as §1

[12] = compound: C1=CC=C(C=C1)C2=NC(=C(N2)C3=CC=NC=C3)C4=CC(=C(C=C4)Cl)O
Summary of the method: as §1

[13] = compound: CC(C)(C)Cn1c(N)nc2ccc(-c3[nH]c(C(C)(C)C)nc3-c3ccc(F)cc3)nc21 [ralimetinib]
Summary of the method: as §1

[14] = compound: CC(C)C[C@@H](C=O)NC(=O)[C@H](CC(C)C)NC(=O)[C@H](CC(C)C)NC(=O)OCc1ccccc1
Summary of the method: as §1

[15] = compound: C1CCN(C1)C(=O)NC2=CC=CC(=C2)NC3=NC=C(C(=N3)NCCC4=CN=CN4)Br
Summary of the method: as §1

[16] = compound: C1CN(CCC1(CC2=CC=C(C=C2)Cl)N)C3=NC=NC4=C3C=CN4
Summary of the method: as §1

[17] = compound: CC1=C(C2=C(C=C1)C(=O)C3=CC=CC=C3N2CCCN)C
Summary of the method: as §1

[18] = compound: C#Cc1cccc(Nc2ncnc3cc(OCCOC)c(OCCOC)cc23)c1 [erlotinib]
Summary of the method: as §1

[19] = compound: C1=CC(=CC=C1C2=NC3=C(N2)C=C(C=C3)C(=O)N)OC4=CC=C(C=C4)Cl
Summary of the method: as §1

[20] = compound: CC(C)C1=C2N=C(C=C(N2N=C1)NCC3=CC=CC=C3)NCCCCCCN
Summary of the method: as §1

Measured: log2 fold change

DENND1B (UniProt Q6P3S1)
inactive: [1] 0.105 | [2] -0.136 | [3] -0.131 | [4] 0.056 | [5] 0.032 | [6] 0.091 | [7] 0.071 | [8] 0 | [9] 0.153 | [10] -0.023 | [11] 0.231

DDX52 (UniProt Q9Y2R4)
inactive: [4] -0.101 | [12] -0.158 | [6] -0.086 | [7] -0.219 | [13] -0.002 | [14] 0.141 | [10] 0.544

DDX18 (UniProt Q9NVP1)
inactive: [1] -0.075 | [3] 0.04 | [5] -0.047 | [15] 0 | [16] -0.018 | [6] 0.175 | [8] 0.102 | [10] 0.095 | [17] -0.242

DERPC (UniProt P0CG12)
inactive: [18] 0.197 | [19] -0.346 | [4] 0.078 | [12] -0.034 | [6] -0.077 | [7] 0.004 | [13] 0.017 | [20] -0.003 | [14] -0.029 | [10] 0.161

DNAAF5 (UniProt Q86Y56)
inactive: [1] -0.074 | [2] -0.564 | [3] 0.042 | [4] -0.023 | [12] 0.032 | [5] -0.056 | [15] 0.055 | [16] -0.125 | [6] -0.095 | [7] 0.027 | [8] 0.161 | [13] 0.268 | [9] 0.113 | [14] 0.268 | [10] 0.457 | [17] -0.159

DEF6 (UniProt Q9H4E7)
inactive: [2] -0.311 | [12] -0.046 | [15] 0.08 | [16] 0.029 | [6] 0.108 | [13] -0.101 | [9] 0.054 | [14] 0.049 | [10] -0.102 | [17] 0.172

DMKN (UniProt Q6E0U4)
inactive: [18] -0.012 | [19] 0.185 | [4] 0.076 | [12] -0.014 | [15] -0.03 | [16] -0.43 | [7] 0.194 | [13] -0.106 | [20] -0.237 | [14] -0.055 | [11] -0.226 | [17] 1.29

DNA2 (UniProt P51530)
inactive: [2] -0.068 | [4] 0.047 | [6] 0.03 | [7] 0.09 | [9] 0.017 | [10] 0.03 | [11] 0.02

DDX46, A0A0C4DG89
inactive: [2] 0.174 | [9] -0.123

DMTF1 (UniProt Q9Y222)
inactive: [1] 0.074 | [3] 0.171 | [5] 0.128 | [15] -0.022 | [16] 0.1 | [8] -0.278 | [17] -0.154

DDX25 (UniProt Q9UHL0)
inactive: [1] 0 | [3] -0.262 | [4] -0.026 | [5] 0.148 | [15] 0.256 | [16] 0.141 | [6] -0.12 | [7] -0.078 | [8] 0.16 | [10] 0.135 | [11] -0.077 | [17] -0.114

DNAH10 (UniProt Q8IVF4)
inactive: [18] 0.325 | [2] 0.251 | [19] -0.187 | [4] -0.054 | [15] -0.052 | [16] 0.137 | [6] 0.004 | [7] 0.018 | [9] -0.127 | [20] 0.162 | [10] -0.106 | [17] -0.022

DECR1 (UniProt E5RJD2)
inactive: [4] -0.047 | [7] 0.099 | [11] -0.056

DENND1A isoform 6 (UniProt Q8TEH3)
inactive: [4] -0.328 | [15] -0.315 | [16] -0.034 | [6] 0.121 | [7] -0.003 | [10] -0.356 | [17] 0.113

DFFA isoform 2 (UniProt O00273)
inactive: [18] 0.209 | [2] -0.033 | [19] 0.004 | [4] -0.03 | [6] -0.041 | [7] -0.032 | [9] 0.058 | [20] 0.005 | [10] -0.11 | [11] 0.042

DDX39B (UniProt H0Y400)
inactive: [18] -0.198 | [2] -0.11 | [19] -0.031 | [9] -0.135 | [20] 0.393

DENND4A isoform 2 (UniProt Q7Z401)
inactive: [1] 0.055 | [2] -0.045 | [3] 0.118 | [4] 0.052 | [12] -0.045 | [5] -0.162 | [15] 0.129 | [16] 0 | [6] 0.081 | [7] -0.048 | [8] -0.275 | [13] 0.037 | [9] -0.026 | [14] 0.055 | [10] 0.085 | [11] 0.097 | [17] -0.036

DEPDC5 (UniProt O75140)
inactive: [6] -0.22 | [10] -0.116

DENND1C (UniProt Q8IV53)
inactive: [18] 0.159 | [19] -0.106 | [20] 0.031

DHPS (UniProt M0R1T2)
inactive: [4] 0.099 | [7] 0.124

DHX32 (UniProt Q7L7V1)
inactive: [2] 0.007 | [15] -0.09 | [16] 0.013 | [9] 0.031 | [17] 0.222

DHX35 (UniProt Q9H5Z1)
inactive: [2] -0.097 | [9] 0.05 | [11] 0.174

Two entries picked at random from those above, as already listed:
DDX25 (UniProt Q9UHL0)
inactive: [1] 0 | [3] -0.262 | [4] -0.026 | [5] 0.148 | [15] 0.256 | [16] 0.141 | [6] -0.12 | [7] -0.078 | [8] 0.16 | [10] 0.135 | [11] -0.077 | [17] -0.114

DDX52 (UniProt Q9Y2R4)
inactive: [4] -0.101 | [12] -0.158 | [6] -0.086 | [7] -0.219 | [13] -0.002 | [14] 0.141 | [10] 0.544

(list continues)

DESI2 (UniProt Q9BSY9)
inactive: [18] -0.057 | [19] 0.007 | [4] 0.097 | [15] -0.05 | [16] 0 | [6] -0.038 | [7] 0.048 | [20] 0.203 | [10] -0.013 | [11] -0.196 | [17] -0.01

DLK1 (UniProt P80370)
inactive: [2] 0.028 | [6] 0.023 | [9] -0.034 | [10] 0.099

DDX11L8 (UniProt A8MPP1)
inactive: [4] 0.059 | [7] -0.066

DDHD1 (UniProt Q8NEL9)
inactive: [18] -0.001 | [19] 0.067 | [4] 0.258 | [12] -0.117 | [6] -0.068 | [7] 0.037 | [13] -0.012 | [20] -0.03 | [14] 0.063 | [10] -0.118

DDX24 (UniProt Q9GZR7)
inactive: [1] -0.251 | [2] -0.401 | [3] -0.176 | [12] 0.019 | [5] 0.026 | [15] 0.125 | [16] -0.278 | [6] -0.2 | [8] 0.179 | [13] 0.181 | [9] 0.005 | [14] 0.361 | [10] 0.229 | [17] -0.39

DLC1 (UniProt Q96QB1)
inactive: [2] -0.047 | [6] 0.075 | [9] -0.005 | [10] 0.015 | [11] -0.05

DDX10 (UniProt Q13206)
inactive: [18] -0.14 | [19] 0.237 | [20] -0.44

DDX55 (UniProt Q8NHQ9)
inactive: [4] 0 | [15] 0.026 | [16] -0.042 | [7] -0.028 | [17] 0.019

DMBT1 isoform 6 (UniProt Q9UGM3)
inactive: [2] -0.331 | [4] 0.041 | [7] -0.327 | [9] 0.036 | [11] -0.534

DET1 isoform 2 (UniProt Q7L5Y6)
inactive: [12] -0.026 | [6] 0.04 | [13] -0.048 | [14] 0.106 | [10] 0.067

DDX47 (UniProt Q9H0S4)
inactive: [1] -0.114 | [2] -0.408 | [3] -0.015 | [4] -0.158 | [12] -0.266 | [5] 0.154 | [6] -0.01 | [7] -0.018 | [8] 0.305 | [13] 0.224 | [9] 0.036 | [14] 0.15 | [10] 0.1 | [11] -0.168

DHX34 (UniProt Q14147)
inactive: [18] 0.06 | [2] -0.063 | [19] 0.148 | [12] 0.003 | [15] 0.038 | [16] 0.01 | [6] 0.019 | [13] 0.089 | [9] 0.075 | [20] 0.271 | [14] -0.017 | [10] 0.037 | [17] 0.256

DERL2 (UniProt Q9GZP9)
inactive: [1] 0.098 | [2] 0.111 | [3] -0.03 | [4] -0.019 | [12] -0.032 | [5] 0.099 | [15] -0.01 | [16] 0.104 | [6] 0.062 | [7] -0.045 | [8] -0.143 | [13] -0.081 | [9] -0.043 | [14] 0.055 | [10] -0.165 | [11] 0.002 | [17] 0.048

DIRAS1 (UniProt O95057)
inactive: [15] 0.085 | [16] 0.056 | [17] -0.039
